Assay results reported in PubChem BioAssay AID493014 (National Center for Advancing Translational Sciences (NCATS), 2011).
This is one part of the list. These are further read-outs of the screen, such as a control signal, another cell line or another target. No call is given for them. Compounds called inactive in the main read-out are mostly missing here. Words in brackets tell the shape of the fitted curve; partial curves, single points and poor fits give uncertain potencies.

Test: qHTS Assay to Find Inhibitors of Chronic Active B-Cell Receptor Signaling
Conditions: ABC-DLBCL IkBa-CBG/CBR reporter, luminescence ratio (green luciferase fused to IkBa over red control in TMD8 lymphoma cells), 4 h
How it was run: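 Doxycycline induced both beetle luciferases in TMD8 lymphoma cells; IKK-driven degradation limits the IkappaBalpha-fused green signal, while red luminescence normalises for cell number and nonspecific effects. Compounds tested up to 46 uM, 4 hrs.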

[1] = measured here: CBR red luminescence, cell number
[2] = measured here: IkBa-CBG green luminescence

Compound | AC50 [1] | AC50 [2]
COC(=O)C1=C(C)NC2=C(C(=O)CCC2)C1c1cn(Cc2ccc(Cl)cc2Cl)nc1-c1ccccc1 (configuration not stated) | 20 µM [falling, single point] | –
CC(=O)Nc1sc(C)c(C)c1C(=O)OCC(=O)Nc1cc(S(=O)(=O)N2CCCCC2)ccc1Cl | – | 23.1 µM [rising, partial curve, poor fit]
Cn1cccc1C(=O)NC(=O)COC(=O)CCNS(=O)(=O)c1ccc(Cl)cc1 | 0.103 µM [rising, full curve, poor fit] | –
CCN(CC(=O)Nc1c(F)cccc1F)C(=O)c1ccc2c(c1)NC(=O)C(C)S2 (configuration not stated) | 9.2 µM [falling, partial curve, poor fit] | –
CCOC(=O)/C=c1\s/c(=C\c2ccc3c(c2)OCCO3)c(=O)n1CC(=O)NCC1CCCO1 (configuration not stated) | 35.5 µM [rising, single point] | –
CC(C)c1ccc(-c2nnn(CCC(=O)O)n2)cc1 | 2.82 µM [falling, full curve] | –
COc1ccc2[nH]c3c(c2c1)CCNC3(C)CCc1ccc(Cl)nc1 (configuration not stated) | 5.62 µM [rising, single point] | –
CCS(=O)(=O)N1CCN(c2cc3c(cc2[N+](=O)[O-])n(C)c(=O)n3C)CC1 | 17.8 µM [rising, partial curve, poor fit] | –
N#Cc1c(NC(=O)C(=O)NCCCN2CCOCC2)sc2c1CCC2 | 6.31 µM [rising, single point] | –
CC(=O)c1sc(NC(=O)C2COc3ccccc3O2)nc1C (configuration not stated) | 6.51 µM [falling, partial curve] | –
CC1CCN(C(=O)COC(=O)COc2ccccc2C#N)CC1 | 6.51 µM [rising, single point] | –
NCCCC[C@H]1CNC(=S)N1CC1CCCCC1 | 12.6 µM [rising, partial curve, poor fit] | –
O=C(NNC(=O)c1ccncc1)Nc1ccc([N+](=O)[O-])cc1 | 8.91 µM [falling, partial curve] | –
COc1cc(NC(=O)C/C(C)=N/NC(=O)c2cccs2)c(OC)cc1Cl | 35.5 µM [falling, single point] | –
CCCN(Cc1cc2cc(C)ccc2[nH]c1=O)S(C)(=O)=O | 3.55 µM [rising, partial curve] | –
C[C@]12c3[nH]c4cc(-c5ccco5)ccc4c3CCN1C(=O)[C@@H](CC(=O)NCCc1ccccn1)C[C@@H]2C(=O)N1CCCCC1 | – | 14.6 µM [falling, partial curve, poor fit]

An excerpt of these results, with tabs:
Compound	AC50 [1]	AC50 [2]
COC(=O)C1=C(C)NC2=C(C(=O)CCC2)C1c1cn(Cc2ccc(Cl)cc2Cl)nc1-c1ccccc1 (configuration not stated)	20 µM [falling, single point]	–
Cn1cccc1C(=O)NC(=O)COC(=O)CCNS(=O)(=O)c1ccc(Cl)cc1	0.103 µM [rising, full curve, poor fit]	–
CCN(CC(=O)Nc1c(F)cccc1F)C(=O)c1ccc2c(c1)NC(=O)C(C)S2 (configuration not stated)	9.2 µM [falling, partial curve, poor fit]	–
CC(=O)c1sc(NC(=O)C2COc3ccccc3O2)nc1C (configuration not stated)	6.51 µM [falling, partial curve]	–
NCCCC[C@H]1CNC(=S)N1CC1CCCCC1	12.6 µM [rising, partial curve, poor fit]	–
COc1cc(NC(=O)C/C(C)=N/NC(=O)c2cccs2)c(OC)cc1Cl	35.5 µM [falling, single point]	–

Continued.

Compound | AC50 [1] | AC50 [2]
S=C(NCc1ccccc1)N1CCn2cccc2C1c1cccnc1 (configuration not stated) | 3.55 µM [rising, full curve, poor fit] | –
O=C(O)CC(Cc1ccccc1)c1ccc2c(c1)OCO2 (configuration not stated) | 5.62 µM [rising, single point] | –
CCCCC(=O)Nc1cccc(C(=O)Nc2ccccc2C(=O)O)c1 | 22.4 µM [falling, single point] | –
O=C(Nc1ccc([N+](=O)[O-])cc1)Nc1ccc(N2CCOCC2)c2nonc12 | 15.8 µM [rising, single point] | –
CCCCCCn1c(CN2CCN(Cc3ccccc3)CC2)nc2c1c(=O)n(C)c(=O)n2C | 16.4 µM [falling, partial curve, poor fit] | –
CCOC(=O)c1ccc(N2C(=O)C3C(/C=C/c4ccccc4)OC4(C(=O)c5ccccc5C4=O)C3C2=O)cc1 (configuration not stated) | 29.1 µM [rising, single point] | –
O=C(CCCOc1ccccc1)Nc1ccc(Cl)c(S(=O)(=O)N2CCOCC2)c1 | 29.1 µM [falling, single point] | –
COc1ccc(/C=C2/C(=O)OCc3cc(OC)c(OC)cc32)cc1 | – | 5.17 µM [falling, partial curve, poor fit]
CCOc1cc(-c2c(C)c(C)nc(N)c2C#N)ccc1O | 5.8 µM [falling, partial curve, poor fit] | –
COc1cc(C(=O)NCC(=O)N2CCN(S(=O)(=O)c3cc(C)ccc3C)CC2)cc(OC)c1OC | – | 11.2 µM [falling, partial curve, poor fit]
CCOc1ccc2oc(-c3ccccc3)c(C(N)=O)c2c1 | 0.631 µM [rising, full curve, poor fit] | –
O=C(CN(CC1CCCO1)C(=O)CCC(=O)Nc1ccccn1)NCC1CCCO1 (configuration not stated) | 6.51 µM [falling, single point] | –
Cc1nc2cc(-c3cccc(F)c3)nn2c(C)c1CCC(=O)NC(C)c1ccc2c(c1)OCCO2 (configuration not stated) | 23.1 µM [falling, single point] | –
COc1cccc(NC(=O)COC(=O)CC(NC(N)=O)c2ccc(Cl)cc2)c1 (configuration not stated) | 15.8 µM [falling, single point] | –
CCC/C=C(\CCC)C(NC(=O)Cc1ccccc1)c1ccc(C(=O)OC)cc1 (configuration not stated) | 16.4 µM [falling, single point] | –
Cc1c(Cl)cccc1-n1c(SCC(=O)NCc2cccs2)nnc1-c1ccncc1 | 35.5 µM [falling, single point] | –
